# Over roughly 33,000 sequences, “E-score (-0.5 to 0.5)” has its median near -0.015; the highest 2% begin near 0.3. This is one part of the list.
# Target: T1, Abf1 (UniProt P14164)
# T1 sequence: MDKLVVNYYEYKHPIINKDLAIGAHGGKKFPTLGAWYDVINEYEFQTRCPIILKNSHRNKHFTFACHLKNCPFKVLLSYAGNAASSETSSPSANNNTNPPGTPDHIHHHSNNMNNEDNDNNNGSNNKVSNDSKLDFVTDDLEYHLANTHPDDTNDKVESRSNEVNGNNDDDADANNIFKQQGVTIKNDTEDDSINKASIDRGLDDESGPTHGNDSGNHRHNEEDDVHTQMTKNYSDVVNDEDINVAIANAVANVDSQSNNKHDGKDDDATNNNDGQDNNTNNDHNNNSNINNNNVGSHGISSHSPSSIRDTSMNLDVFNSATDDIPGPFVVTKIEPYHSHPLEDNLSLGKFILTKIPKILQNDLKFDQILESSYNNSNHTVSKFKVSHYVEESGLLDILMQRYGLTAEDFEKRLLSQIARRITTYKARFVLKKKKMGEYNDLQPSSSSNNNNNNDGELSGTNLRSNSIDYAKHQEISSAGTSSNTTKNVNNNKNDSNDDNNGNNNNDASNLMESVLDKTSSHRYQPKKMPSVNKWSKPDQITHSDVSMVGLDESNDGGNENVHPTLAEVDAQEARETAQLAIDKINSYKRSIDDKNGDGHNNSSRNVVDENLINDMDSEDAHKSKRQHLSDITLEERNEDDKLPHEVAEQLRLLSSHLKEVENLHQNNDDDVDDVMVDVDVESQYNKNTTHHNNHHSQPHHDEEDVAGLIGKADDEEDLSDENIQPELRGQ
# Experiment: PBM E-score (8-mer binding enrichment) (E-score (-0.5 to 0.5)); higher = stronger / more preferred TF binding
# Settings: protein concentration: 200 nM; construct: GST-full length
# Procedure, shortened: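 GST-tagged yeast TFs (full-length or DNA-binding domain) were made by PURExpress in vitro transcription/translation and applied at about 100-200 nM to universal all-10-mer Agilent arrays. The arrays were made double-stranded by primer extension, on fresh or once-stripped slides. Bound protein was detected with fluorescent anti-GST, and scans were normalised with masliner. Each ungapped eight-base word, pooled with its reverse complement, received an E-score (modified Wilcoxon-Mann-Whitney statistic) from the Universal PBM Analysis Suite.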
row,Sequence,PBM E-score
1,ACTGCGCA,0.181
2,AATTACTG,-0.0681
3,ACCCCATC,-0.128
4,ACAGTTGA,-0.00384
5,CATGGACC,0.00992
6,ATCCGACC,0.0717
7,ATCAGTAG,0.0503
8,AGTTTATA,0.0788
9,CCCATAAC,0.0387
10,CGAATTAA,0.16
11,AAACGTGC,0.0805
12,AGCTTCCG,-0.0688
13,CCATGTCG,0.0896
14,ATGGCGTC,-0.16
15,ACTTGCGA,0.0437
16,AAGTATAT,0.103
17,CCGGACCA,-0.203
18,ACAAGCCC,-0.126
19,ACAGGCAT,-0.0158
20,AGCCGGAG,-0.0233
21,AGGATCGA,-0.0985
22,GTATACAC,0.107
23,CCTGAACC,-0.0922
24,GAAGGCAC,-0.0473
25,CCATGTCA,0.262

row,Sequence,PBM E-score
1,GGCAGCCC,-0.278
2,AGCAAGCG,0.0258
3,CCTTGGAC,-0.0293
4,CTTAGTGC,-0.0935
5,GGGGACAC,-0.232
6,GTTGCGCA,0.0411
7,TGTCCAAA,0.14
8,GTGTCCGA,0.105
9,AAGACCTT,-0.0155
10,ATTCCGTC,-0.0258
11,AAGCCTAC,-0.101
12,CACCGGGC,-0.0781
13,GGGGGTGA,-0.0468
14,AACCCACT,0.0769
15,AGGAGGAT,-0.316
16,CTTGGAAA,-0.144
17,ACCAGCCT,-0.0776
18,GCTTGTCC,0.119
19,CCAGCGAG,-0.113
20,CCCGCTTC,-0.212
21,GTTAAAAA,0.22
22,ATCAATTC,0.153
23,ATGTACAT,0.292
24,AGCCGTCA,0.164
25,CGTACCAG,0.0671

row,Sequence,PBM E-score
1,TTGGACAA,0.0357
2,ATGGTAAT,0.0696
3,AGATCGTA,0.161
4,AACCATGG,-0.155
5,AGCCACGG,0.11
6,CTAGGTGA,0.0187
7,CAGTGCAG,-0.127
8,ACGCACGC,-0.0387
9,CGTAGCCA,0.151
10,ACTGAAGG,-0.0571
11,AAACCTGA,-0.241
12,GCGCTTGA,-0.0555
13,AGTCTAGC,-0.222
14,GACATCCC,0.0674
15,AATATAAA,0.106
16,ATATTACA,0.26
17,GAATCGTC,0.239
18,CTTGGTAA,-0.204
19,CGGTTGGC,0.0254
20,GGCAGAAC,-0.235
21,ATTCGAGG,-0.103
22,CTCAACAA,-0.0105
23,CCAGAGGG,-0.267
24,ATCTTTGG,-0.139
25,GATCCTAA,0.0497

# Reprinted at random: six records from the list
row,Sequence,PBM E-score
3,AGATCGTA,0.161
18,CTTGGTAA,-0.204
8,ACGCACGC,-0.0387
15,AATATAAA,0.106
12,GCGCTTGA,-0.0555
4,AACCATGG,-0.155

# Further records.

row,Sequence,PBM E-score
1,CCTGTAAA,-0.242
2,CCCTGAAA,0.0186
3,AAAGCCAA,-0.094
4,AGATATGG,0.0661
5,AGTTTCCC,0.102
6,CCACGAGC,0.104
7,ACTTTTAA,0.0622
8,CGCGAAGA,-0.0372
9,GATCGGGC,-0.195
10,ACCGCGCT,-0.0598
11,ACTGCGGA,-0.198
12,ACTCTCGC,-0.0437
13,CCGACTGC,-0.186
14,ACTCAGCT,-0.217
15,ATCTGCAA,-0.0241
16,AGGAACGA,0.0039
17,AGCACGCC,-0.0981
18,AGGAGGTA,0.0411
19,GCAGACAA,0.0735
20,CAGACTTC,-0.283
21,ATTTTAGA,0.0294
22,GGTCCAAA,-0.252
23,AGACCCAC,-0.172
24,GGCCCGAA,-0.0977
25,ATGGGTTA,-0.0945

row,Sequence,PBM E-score
1,CCGCTTCA,-0.141
2,AGAGAGAT,0.0914
3,AATCATCG,0.179
4,GGGCGACA,-0.129
5,GCCGCGAC,0.109
6,CATGTTAA,0.0065
7,ATCCCGAG,0.0146
8,ATTAGGCC,-0.00913
9,GAGGAATA,0.0204
10,ACTTTTTG,0.0774
11,GTACTACA,0.279
12,ACCAGTCC,-0.238
13,TAGAATGA,0.119
14,CACTTGAC,0.0447
15,GACTTATC,0.179
16,AGCTACTA,-0.0232
17,GCCCCGGC,-0.204
18,CGGTCCAC,-0.0116
19,GGGCACGA,-0.00213
20,AAGAGCCG,-0.135
21,CGGTTGAA,0.0448
22,AGAGACGC,-0.0432
23,AGTGGAGG,-0.0153
24,ATCGGAGG,-0.134
25,ACATGCGG,0.126

row,Sequence,PBM E-score
1,GCTATGCA,-0.102
2,ATCTACTC,0.0722
3,CTAGAGCA,-0.0213
4,ATTCTCAC,0.0667
5,GTACAGGA,0.157
6,ACTGTAAT,-0.06
7,ACGCCGTG,0.188
8,AGCCACAT,-0.0203
9,CGCGACAA,0.217
10,AACAGTGT,-0.0246
11,CACAAGCC,-0.218
12,CGACGATC,0.298
13,CCCATTTA,-0.0213
14,CTCACTTC,-0.0359
15,GATTTGGC,-0.128
16,ATGCCCGA,0.219
17,AGCATAGA,-0.15
18,ACGTCACT,0.39
19,CGGCGCAA,-0.124
20,CCACATAA,0.0942
21,TAATATTA,0.361
22,CCTCTCGC,-0.106
23,ATCGCAAT,0.106
24,GCTTAAGC,-0.151
25,CTCGGATA,0.0365

row,Sequence,PBM E-score
1,CTTCTTTC,-0.0906
2,GCGCGAGA,0.00596
3,CGTCAAGA,0.141
4,TAGACCTA,-0.0392
5,CGTAAACC,-0.132
6,ATGGGGTC,-0.0774
7,TGAGGTAA,-0.0293
8,ATGATCAT,0.387
9,AAAGGAGG,-0.243
10,CAATAATC,-0.0515
11,CGAGGGCC,-0.13
12,GAAGTCTC,-0.0571
13,CGGAAACA,-0.171
14,GATACACC,0.1
15,AGGCCGGA,-0.0884
16,CATAGACG,0.11
17,ACGAACGT,0.289
18,AAAAAGTT,0.00475
19,GGACATCA,0.215
20,AGATGTTA,-0.0783
21,TGAATTCA,0.171
22,GATCGTGA,0.206

# Source: the supplement of paper PMC3334620
